Library screen at single concentrations

Protein sequences, listed by entry. Tags and fused reporters are not part of them. Residues count along the entry.
UniProt A4I591, 1-473: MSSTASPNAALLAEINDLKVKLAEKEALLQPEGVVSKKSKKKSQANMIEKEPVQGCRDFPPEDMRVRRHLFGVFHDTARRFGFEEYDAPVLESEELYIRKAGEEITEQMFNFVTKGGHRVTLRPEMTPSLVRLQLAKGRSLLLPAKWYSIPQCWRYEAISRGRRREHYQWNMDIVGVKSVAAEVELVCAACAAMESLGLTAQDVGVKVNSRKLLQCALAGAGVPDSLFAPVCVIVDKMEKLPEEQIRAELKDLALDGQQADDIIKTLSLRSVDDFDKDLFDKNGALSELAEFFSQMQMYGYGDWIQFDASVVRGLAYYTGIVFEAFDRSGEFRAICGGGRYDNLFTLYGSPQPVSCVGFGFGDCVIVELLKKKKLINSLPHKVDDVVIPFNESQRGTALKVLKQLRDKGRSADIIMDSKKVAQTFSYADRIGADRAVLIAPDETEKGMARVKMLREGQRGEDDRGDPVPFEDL
UniProt I6X8D2, whole entry: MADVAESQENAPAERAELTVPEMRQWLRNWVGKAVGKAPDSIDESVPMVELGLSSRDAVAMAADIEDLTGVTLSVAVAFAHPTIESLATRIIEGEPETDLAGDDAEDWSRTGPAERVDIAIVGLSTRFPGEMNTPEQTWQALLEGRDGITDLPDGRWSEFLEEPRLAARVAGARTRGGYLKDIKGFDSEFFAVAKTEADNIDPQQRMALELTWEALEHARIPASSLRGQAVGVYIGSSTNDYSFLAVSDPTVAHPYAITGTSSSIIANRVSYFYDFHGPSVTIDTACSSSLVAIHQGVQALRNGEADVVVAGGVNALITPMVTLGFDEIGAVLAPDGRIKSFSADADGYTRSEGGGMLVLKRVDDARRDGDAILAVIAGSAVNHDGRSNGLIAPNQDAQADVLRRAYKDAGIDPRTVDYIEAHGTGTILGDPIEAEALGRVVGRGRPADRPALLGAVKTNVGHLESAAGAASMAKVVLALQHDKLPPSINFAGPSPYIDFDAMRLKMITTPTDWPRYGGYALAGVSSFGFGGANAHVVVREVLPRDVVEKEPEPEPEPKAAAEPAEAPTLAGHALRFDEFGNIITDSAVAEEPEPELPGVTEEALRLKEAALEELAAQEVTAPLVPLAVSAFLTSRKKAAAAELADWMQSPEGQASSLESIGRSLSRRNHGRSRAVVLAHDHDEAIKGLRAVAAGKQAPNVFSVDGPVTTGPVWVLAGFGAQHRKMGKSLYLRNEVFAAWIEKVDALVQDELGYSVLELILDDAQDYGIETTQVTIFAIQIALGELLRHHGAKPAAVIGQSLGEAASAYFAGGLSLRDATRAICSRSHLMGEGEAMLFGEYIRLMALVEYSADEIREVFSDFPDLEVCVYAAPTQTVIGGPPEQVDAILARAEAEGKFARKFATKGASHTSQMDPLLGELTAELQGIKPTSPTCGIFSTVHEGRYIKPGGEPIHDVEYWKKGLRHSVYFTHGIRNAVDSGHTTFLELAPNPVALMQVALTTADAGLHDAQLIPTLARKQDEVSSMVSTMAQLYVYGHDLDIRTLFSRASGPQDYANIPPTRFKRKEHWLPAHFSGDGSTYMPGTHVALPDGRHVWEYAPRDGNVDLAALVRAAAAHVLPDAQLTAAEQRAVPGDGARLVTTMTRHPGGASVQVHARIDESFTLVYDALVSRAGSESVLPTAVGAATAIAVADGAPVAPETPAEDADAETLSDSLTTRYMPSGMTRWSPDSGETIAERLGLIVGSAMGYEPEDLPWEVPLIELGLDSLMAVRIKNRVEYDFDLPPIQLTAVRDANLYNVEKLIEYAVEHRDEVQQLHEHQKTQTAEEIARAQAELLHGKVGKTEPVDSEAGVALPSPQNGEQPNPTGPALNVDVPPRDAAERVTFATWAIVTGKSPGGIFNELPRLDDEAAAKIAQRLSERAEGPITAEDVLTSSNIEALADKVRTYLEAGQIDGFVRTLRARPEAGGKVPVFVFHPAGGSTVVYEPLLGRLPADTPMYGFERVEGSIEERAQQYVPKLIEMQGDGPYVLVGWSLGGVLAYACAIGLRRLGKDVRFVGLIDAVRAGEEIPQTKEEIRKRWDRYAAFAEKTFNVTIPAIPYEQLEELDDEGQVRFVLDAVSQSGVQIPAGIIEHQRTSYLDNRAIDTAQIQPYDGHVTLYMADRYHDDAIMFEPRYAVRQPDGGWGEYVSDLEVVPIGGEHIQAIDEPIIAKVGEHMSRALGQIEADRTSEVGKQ

Values are the deposited “Percent Effect”, in %.
The controls that fix the scale are not given in the record; negative values are as filed.
Compounds were drawn at random from those tested, without regard to their results.
A dash means the value is not listed here; it may have been measured.

LiHisRS: 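Histidine-tRNA ligase, Leishmania infantum (UniProt A4I591). Enzyme assay of histidyl-tRNA synthetase; the read-out is not stated. Compounds at 30 µM. Higher reads as stronger inhibition (inferred: compounds with an IC50 in retests scored well above the rest). The assay is labelled LdHisRS but filed under L. infantum. Of about 69,000 compounds tested this way, about 410 (0.6%) reached 50% or more in at least one test.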
Pks13 thioesterase: 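Enzyme assay of the thioesterase domain of polyketide synthase 13; the read-out is not stated. Target: Polyketide synthase Pks13, Mycobacterium tuberculosis (UniProt I6X8D2). Compounds at 30 µM. The record gives no direction; the compounds picked for IC50 retests had high values, so higher reads as stronger inhibition. About 67,000 compounds were tested under these conditions; 0.46% (about 300) showed 50% or more at least once.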
Leishmania in macrophages: 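Cell assay of Leishmania donovani living inside macrophages; the read-out is not stated. Concentration: 30 µM. Direction is inferred from retests: higher values go with stronger inhibition. Size under these conditions: about 69,000 compounds, about 1,000 of them at 50% or above in at least one test.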

Compound	LiHisRS	Pks13 thioesterase	Leishmania in macrophages
Cc1nc(CNC2CCc3ncnn3C2)oc1C (stereo not drawn)	9.524%	-31.56%	20.05%
Cc1cn2nc(N3CCCC3C(=O)N3CCOCC3)sc2n1 (stereo not drawn)	12.8%	-	3.664%
CCOc1cc2c(cc1CN1CCC3(CCCNC3=O)C1)CCC2 (stereo not drawn)	9.79%	-40.01%	1.568%
Cc1cnc(CN(C)C2CCN(CCCc3cnn(C)c3)C2)o1 (stereo not drawn)	10.34%	-	14.85%
Cc1cccc(C(=O)N2CCC3(CCN(c4cnn(C)c4)C3=O)C2)n1 (stereo not drawn)	6.452%	-6.252%	-
Cn1ncnc1CNc1ccc2c(c1)N(C(=O)OC(C)(C)C)CCC2	13.98%	-17.8%	7.471%
CC(C)c1nccn1C1CCCN(C(=O)c2cn3cccnc3n2)C1 (stereo not drawn)	1.754%	7.648%	8.154%
NC(=O)c1ccc(OCCCN2C[C@H](C3CC3)[C@@H](N)C2)cc1	5.376%	-8.747%	42.52%
Cc1ncc(C(=O)N2CCC(N3CCc4ccccc4C3)CC2)c(O)n1	15.05%	7.558%	24.9%
Cc1ccc(N2CCC3(CCC(=O)N3)CC2)nn1	10.34%	-21.06%	8.944%
CN(C)c1cc(CNC(=O)c2ccc(Br)cc2F)ccn1	12.5%	-2.509%	-11.05%
O=c1cc(Cn2ccnc2)nc2n1CCCN(CC1CCOCC1)C2	21.05%	-33.4%	26%
O=C(c1csc(C2CC2)n1)N1CCCCC1Cn1cccn1 (stereo not drawn)	-0.8929%	-17.86%	-3.448%
c1ccc2sc(N3CCN(c4ncnc5c4CCC5)CC3)nc2c1	14.29%	-27.01%	41.51%
Cc1cccc(OC2CCN(C(=O)NCc3cc[nH]n3)CC2)c1C	6.806%	-4.342%	30.84%
CSc1nnc(N(CCC#N)CCC#N)s1	2.083%	-9.754%	0.6666%
Cc1cccc2c1nc1n2[C@@H](CNC(=O)CCC(=O)O)COC1	22.97%	-28.47%	11.28%
CN(Cc1nnc2n1CCC2)C(=O)c1ccc2c(c1)CCO2	0.8772%	-14.43%	7.709%
Cc1nc(CN2CCC3(CCN(Cc4cnn(C)c4)CC3)C2=O)cs1.O=C(O)C(F)(F)F.O=C(O)C(F)(F)F	-	-	-0.07987%
COc1ccc2c(c1)Cc1c-2nc(N)c(C#N)c1C1CCOC1 (stereo not drawn)	10.84%	39.34%	63.86%
CNc1nc(C(=O)N2CCC3(CCCN(CC4CC4)C3=O)C2)cs1 (stereo not drawn)	11.2%	3.672%	29.21%
CC1CN(Cc2cccc(C#N)c2)CCN1c1ccc2nncn2n1 (stereo not drawn)	38.36%	7.384%	9.633%
Cn1cc2ncn([C@H]3CCN(Cc4ccccc4)C3)c(=O)c2n1	22.45%	-26.52%	7.464%
CCNC(=O)N1CCC(NC(=O)NCCc2cc(F)cc(F)c2)C1 (stereo not drawn)	2.128%	-18.45%	-13.93%
Cc1cccc(CN2C(=O)CCC23CCNCC3)n1	22.94%	-16.94%	-
CCc1nc(CCNC(=O)NC2CCSCC2)cs1	-6.25%	-9.859%	27%
Cn1cnc(S(=O)(=O)N2C[C@@H]3CC[C@H](C2)N(Cc2cscn2)C3=O)c1	22.4%	-15.46%	-
CC/N=c1/c(NC(=O)C2CC2)c(O)oc2ccccc12	12.39%	-24.93%	-64.73%
N#Cc1cccc(CN2C[C@H](OCC3CCOCC3)[C@H]3COC[C@H]32)c1	20%	-29.55%	-
O=C(O)C(F)(F)F.O=C(O)C(F)(F)F.[H][C@@]12CCCO[C@]1([H])[C@H](N(C)Cc1ccco1)CN(Cc1nccs1)C2	-	-	22.77%
[H][C@@]12CN(C(C)=O)C[C@]1(C(=O)NC)CCC21CCN(S(C)(=O)=O)CC1	-	-	-5.863%
COc1cccc(C(=O)Nc2ccc(OC3CCN(C)CC3)cc2)c1	7.2%	7.038%	-9.003%
CC(C)(C)c1cc(NC(=O)CN2CCCC(Cn3cncn3)C2)on1 (stereo not drawn)	25.71%	3%	-11.79%
COc1ccc(C2CCCCCN2CCCNS(C)(=O)=O)cc1 (stereo not drawn)	18.64%	-15.08%	26.1%
COC(=O)C1CN(CC(=O)Nc2cccc(OC)c2)c2ccccc21 (stereo not drawn)	-18.75%	-33.83%	28.16%
CN(CC(=O)NC1(C)CCS(=O)(=O)C1)Cc1ccc(F)c(F)c1 (stereo not drawn)	-3.448%	-24.06%	-30.6%
N#CC(NC(=O)CC1CCSCC1)c1cnn(-c2ccccc2)c1 (stereo not drawn)	-4.301%	0.2811%	7.241%

For reference, 2 entries once more:

| Compound | LiHisRS | Pks13 thioesterase | Leishmania in macrophages |
|---|---|---|---|
| `CCNC(=O)N1CCC(NC(=O)NCCc2cc(F)cc(F)c2)C1` (stereo not drawn) | 2.128% | -18.45% | -13.93% |
| `Cc1cccc2c1nc1n2[C@@H](CNC(=O)CCC(=O)O)COC1` | 22.97% | -28.47% | 11.28% |

From ChEMBL document CHEMBL3988442, “University of Dundee, Small-Polar-MMV Screening Library” (2021).